From PubChem BioAssay (NCATS)
The inconclusive results got no clear call from the source; some entries with a clear call stand among them for comparison. Where the call is inconclusive, the potency comes from a doubtful curve fit. Active and inactive are the calls of the source. The call rests on the fitted dose curve; in most records, active means well fitted curve in the direction sought with a large enough effect; inconclusive means small, poorly fitted or top-dose-only effect, or another doubt; inactive means no such curve, though single readings can be large; an effect the other way counts as inactive or inconclusive.

Key:
[1] = Quantitative High-Throughput drug screen in 47 multiple myeloma cell lines against the NCATS MIPE library collection: KMS12BM_JCRB cell viability assay (AID 1918971); details: KMS12BM myeloma viability, CellTiter-Glo ATP, 48 h; series mostly up to 45.8 µM; further: nearly all actives have a fitted effect of over 35% in size
How it was run: (§1)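 Inhibition of cell viability is measured here. Each line was plated at 500 cells per well, treated with MIPE 4.0 drugs, kept 48 hours at 37C, then assayed for ATP content by CellTiter-Glo luminescence.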

[2] = Quantitative High-Throughput drug screen in 47 multiple myeloma cell lines against the NCATS MIPE library collection: KMS20_JCRB cell viability assay (AID 1918973); details: CellTiter-Glo ATP, 48 h; viability (% of DMSO): at 45.8 µM (top of the series); further: nearly all actives have a fitted effect of over 45% in size
How it was run: (§2)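 Luminescent ATP measurement with CellTiter-Glo gives viability, scaled between DMSO-only wells (100%) and media-only wells (0%). Cells, 500 per well, faced library compounds for 48 hours at 37C.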

[3] = Quantitative High-Throughput drug screen in 47 multiple myeloma cell lines against the NCATS MIPE library collection: KMS21BM_JCRB cell viability assay (AID 1918974); details: ATP luminescence, 48 h; viability: at 45.8 µM (top of the series) unless noted
How it was run: as §2

[4] = Quantitative High-Throughput drug screen in 47 multiple myeloma cell lines against the NCATS MIPE library collection: KMS26_JCRB cell viability assay (AID 1918975); details: KMS26 myeloma cells viability, CellTiter-Glo ATP, 48 h; viability (% of DMSO): at 45.8 µM (top of the series); further: nearly all actives have a fitted effect of over 45% in size
How it was run: as §1

[5] = Quantitative High-Throughput drug screen in 47 multiple myeloma cell lines against the NCATS MIPE library collection: MMM1_PLB cell viability assay (AID 1918976); further: nearly all actives have a fitted effect of over 35% in size
How it was run: (§3)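 Readout: median RLU from CellTiter-Glo after 5 min at room temperature. Preceding step was 48 h drug treatment of 500 cells/well at 37 °C, 5% CO2, with DMSO-only and media-only control wells.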

[6] = Quantitative High-Throughput drug screen in 47 multiple myeloma cell lines against the NCATS MIPE library collection: MOLP8_DSMZ cell viability assay (AID 1918977); details: MOLP8 myeloma viability, CellTiter-Glo ATP luminescence, 48 h; viability (% of control): at 45.8 µM (top of the series); further: nearly all actives have a fitted effect of over 45% in size
How it was run: as §3

[7] = Quantitative High-Throughput drug screen in 47 multiple myeloma cell lines against the NCATS MIPE library collection: NCIH929_DSMZ cell viability assay (AID 1918978); details: NCI-H929 myeloma viability, CellTiter-Glo ATP, 48 h; series mostly up to 45.8 µM; further: nearly all actives have a fitted effect of over 35% in size
How it was run: as §3

[8] = Quantitative High-Throughput drug screen in 47 multiple myeloma cell lines against the NCATS MIPE library collection: OCIMY1_PLB cell viability assay (AID 1918979); further: nearly all actives have a fitted effect of over 35% in size
How it was run: as §3

[9] = Quantitative High-Throughput drug screen in 47 multiple myeloma cell lines against the NCATS MIPE library collection: MM1S_ATCC cell viability assay (AID 1918980); details: MM1S myeloma viability, CellTiter-Glo ATP luminescence, 48 h; viability (% of control): at 45.8 µM (top of the series); further: nearly all actives have a fitted effect of over 45% in size
How it was run: as §3

[10] = Quantitative High-Throughput drug screen in 47 multiple myeloma cell lines against the NCATS MIPE library collection: KMS12PE_JCRB cell viability assay (AID 1918972); further: nearly all actives have a fitted effect of over 30% in size
How it was run: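 Relative luminescence from CellTiter-Glo served as the viability signal, referenced to DMSO-treated (100%) and cell-free medium (0%) controls. Treatment lasted 48 hours at 37C with 500 cells per well.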
Potency means the concentration at half of the fitted maximal effect.

| SMILES | Potency [1] | Potency [2] | Potency [3] | Potency [4] | Potency [5] | Potency [6] | Potency [7] | Potency [8] | Potency [9] | Potency [10] |
| --- | --- | --- | --- | --- | --- | --- | --- | --- | --- | --- |
| COc1ccc(C=CC(=O)Nc2ccccc2C(=O)O)cc1OC | inconclusive: 2.64 µM [cytotoxic, full curve, poor fit] | active: 11.8 µM | inconclusive: 13.2 µM [rising, partial curve] | inconclusive: 0.0012 µM [cytotoxic, full curve, poor fit] | inconclusive: 2.35 µM [cytotoxic, partial curve, poor fit] | inactive | inactive | inactive | active: 11.8 µM |  |
| Cn1nnc2c(C(N)=O)ncn2c1=O | inconclusive: 6.62 µM [rising, partial curve, poor fit] | inactive | inconclusive: 1.87 µM [cytotoxic, full curve, poor fit] | inactive | inactive | inactive |  |  | inconclusive: 0.0743 µM [rising, full curve, poor fit] |  |
| COc1ccc(-c2oc3cc(OC)ccc3c2C(=O)c2ccc(C#N)cc2)cc1 | inactive | inactive | active: 1.32 µM | inactive |  | inactive | inconclusive: 26.4 µM [cytotoxic, single point] |  | active: 10.5 µM |  |
| O=C1C[C@@H](c2ccc(O)cc2)Oc2cc(O)cc(O)c21 | inconclusive: 20.9 µM [cytotoxic, partial curve, poor fit] | inconclusive: 7.43 µM [rising, partial curve, poor fit] | inconclusive: 33.2 µM [rising, partial curve] | inconclusive: 0.001 µM |  | inactive |  |  | active: 10.5 µM |  |
| C[C@H](NC(=O)c1sccc1OCc1ccc(Cl)cc1)c1ccccc1 | active: 18.7 µM | inconclusive: 20.9 µM [cytotoxic, partial curve, poor fit] | inconclusive: 0.0418 µM [rising, full curve, poor fit] | inconclusive: 18.7 µM [cytotoxic, partial curve, poor fit] |  | inconclusive: 14.8 µM [cytotoxic, partial curve, poor fit] | inconclusive: 20.9 µM [cytotoxic, partial curve, poor fit] |  | active: 18.7 µM |  |
| Oc1ccc(OCc2ccccc2)cc1 | inconclusive: 11.8 µM [cytotoxic, partial curve, poor fit] | inconclusive: 11.8 µM [rising, single point] | inconclusive: 37.2 µM [rising, partial curve, poor fit] | inconclusive: 10.5 µM [cytotoxic, full curve, poor fit] |  | inconclusive: 1.18 µM [cytotoxic, partial curve, poor fit] | inactive |  | inactive |  |
| COc1cc(OC)c(C(=O)CCCN2CCCC2)c(OC)c1 | inconclusive: 7.43 µM [cytotoxic, partial curve, poor fit] | inconclusive: 0.0235 µM [cytotoxic, full curve, poor fit] | active: 18.7 µM | inconclusive: 5.26 µM [cytotoxic, partial curve, poor fit] | inconclusive: 0.0526 µM [cytotoxic, full curve, poor fit] | inactive | inactive | inactive | active: 16.6 µM |  |
| COc1cccc(-c2cc(=O)c3ccccc3o2)c1N | inconclusive: 0.0105 µM [rising, full curve, poor fit] |  |  | inconclusive: 0.0093 µM [rising, full curve, poor fit] | inconclusive: 0.0083 µM [rising, full curve] | inactive |  | inconclusive: 18.7 µM [rising, partial curve] | inconclusive: 5.9 µM [cytotoxic, full curve] | inconclusive: 20.9 µM [cytotoxic, partial curve] |
| Cc1cc2c(s1)Nc1ccccc1N=C2N1CCN(C)CC1 | inconclusive: 0.0118 µM [rising, full curve, poor fit] | inactive | inconclusive: 8.33 µM [cytotoxic, single point] | inactive |  | inactive |  |  | inconclusive: 11.8 µM [cytotoxic, partial curve] |  |
| O=C(O)Cc1cccc(OCCCN(Cc2cccc(C(F)(F)F)c2Cl)CC(c2ccccc2)c2ccccc2)c1 | active: 3.32 µM | inconclusive: 0.0833 µM [rising, full curve, poor fit] | inconclusive: 0.743 µM [cytotoxic, partial curve, poor fit] | inconclusive: 4.18 µM [cytotoxic, partial curve, poor fit] |  | inconclusive: 16.6 µM [cytotoxic, partial curve] | active: 18.7 µM |  |  |  |
| OC[C@H]1O[C@@H](n2cnc3c2NC=NC[C@@H]3O)C[C@H]1O | inconclusive: 4.18 µM [cytotoxic, partial curve, poor fit] | inconclusive: 0.0019 µM [cytotoxic, full curve, poor fit] | active: 0.0042 µM | inactive |  | inactive |  |  | inconclusive: 33.2 µM [cytotoxic, single point] |  |
| Cc1nc(-c2ccc(OCC(C)C)c(C#N)c2)sc1C(=O)O | inconclusive: 0.0166 µM [cytotoxic, full curve, poor fit] | inactive | inconclusive: 0.0118 µM [rising, full curve, poor fit] | inconclusive: 0.0013 µM [cytotoxic, full curve, poor fit] |  |  |  |  | inactive |  |
| O=c1c(O)c(-c2ccc(O)cc2)oc2cc(O)cc(O)c12 | inconclusive: 1.66 µM [rising, full curve, poor fit] | active: 14.8 µM | active: 5.9 µM | inconclusive: 16.6 µM [cytotoxic, partial curve, poor fit] |  | inconclusive: 0.526 µM [rising, full curve, poor fit] |  |  |  |  |
| O=C1CCc2ccc(OCCCCN3CCN(c4cccc(Cl)c4Cl)CC3)cc2N1 | active: 11.8 µM | inconclusive: 16.6 µM [cytotoxic, partial curve, poor fit] | inconclusive: 37.2 µM [rising, partial curve] | inconclusive: 1.66 µM [cytotoxic, partial curve, poor fit] |  | inconclusive: 3.72 µM [cytotoxic, full curve, poor fit] | inconclusive: 37.2 µM [cytotoxic, single point] |  | inconclusive: 23.5 µM [cytotoxic, single point] |  |
| CC(=O)O[C@]1(C(C)=O)CC[C@H]2[C@@H]3C=C(C)C4=CC(=O)CC[C@]4(C)[C@@H]3CC[C@@]21C | active: 9.35 µM | inconclusive: 11.8 µM [cytotoxic, single point] | inconclusive: 2.96 µM [cytotoxic, full curve, poor fit] | inactive |  | inconclusive: 5.9 µM [cytotoxic, full curve, poor fit] | active: 7.43 µM |  |  |  |
| OC(CN1CCC(Cc2ccc(F)cc2)CC1)c1ccc(Cl)cc1 (stereo not given) | inactive | inconclusive: 0.0935 µM [rising, full curve, poor fit] | inactive | inactive | inconclusive: 0.0019 µM [rising, full curve, poor fit] | inactive | inactive | inconclusive: 0.0026 µM [rising, full curve, poor fit] | inconclusive: 33.2 µM [cytotoxic, single point] |  |
| O=C1NC(=O)C(=Cc2ccc(-c3ccc(F)cc3)o2)S1 | inconclusive: 16.6 µM [cytotoxic, partial curve, poor fit] | inconclusive: 33.2 µM [cytotoxic, single point] | active: 2.09 µM | inconclusive: 0.743 µM [cytotoxic, full curve, poor fit] |  | inactive | inconclusive: 23.5 µM [cytotoxic, single point] | inconclusive: 0.0132 µM [rising, full curve, poor fit] | inconclusive: 29.6 µM [cytotoxic, single point] |  |
| O=C(C=CC=Cc1ccc2c(c1)OCO2)N1CCCCC1 | inactive | inconclusive: 2.96 µM [cytotoxic, full curve, poor fit] | inconclusive: 2.64 µM [rising, partial curve, poor fit] | inconclusive: 0.0033 µM [rising, full curve, poor fit] | inconclusive: 0.526 µM [cytotoxic, partial curve, poor fit] | inactive | inactive |  | inconclusive: 37.2 µM [cytotoxic, single point] |  |
| COc1ccc2c3c1OC1C[C@@H](O)C=C[C@@]31CCN(C)C2 (stereo not given in full) | inconclusive: 2.96 µM [cytotoxic, partial curve, poor fit] | inconclusive: 8.33 µM [cytotoxic, full curve, poor fit] | inconclusive: 9.35 µM [rising, partial curve] | inconclusive: 0.833 µM [rising, full curve, poor fit] | inconclusive: 3.72 µM [cytotoxic, full curve, poor fit] | inconclusive: 9.35 µM [cytotoxic, single point] |  | inactive |  |  |
| CN1CCC(=C2c3ccccc3CCc3sccc32)CC1 | inconclusive: 20.9 µM [cytotoxic, single point] | inconclusive: 11.8 µM [cytotoxic, partial curve, poor fit] | inconclusive: 23.5 µM [cytotoxic, partial curve, poor fit] | inconclusive: 18.7 µM [cytotoxic, partial curve, poor fit] | inconclusive: 20.9 µM [cytotoxic, partial curve, poor fit] | inactive |  | inconclusive: 0.0012 µM [cytotoxic, full curve, poor fit] | inconclusive: 26.4 µM [cytotoxic, single point] |  |

2 records picked at random from the list so far:

| SMILES | Potency [1] | Potency [2] | Potency [3] | Potency [4] | Potency [5] | Potency [6] | Potency [7] | Potency [8] | Potency [9] | Potency [10] |
| --- | --- | --- | --- | --- | --- | --- | --- | --- | --- | --- |
| CN1CCC(=C2c3ccccc3CCc3sccc32)CC1 | inconclusive: 20.9 µM [cytotoxic, single point] | inconclusive: 11.8 µM [cytotoxic, partial curve, poor fit] | inconclusive: 23.5 µM [cytotoxic, partial curve, poor fit] | inconclusive: 18.7 µM [cytotoxic, partial curve, poor fit] | inconclusive: 20.9 µM [cytotoxic, partial curve, poor fit] | inactive |  | inconclusive: 0.0012 µM [cytotoxic, full curve, poor fit] | inconclusive: 26.4 µM [cytotoxic, single point] |  |
| COc1ccc(-c2oc3cc(OC)ccc3c2C(=O)c2ccc(C#N)cc2)cc1 | inactive | inactive | active: 1.32 µM | inactive |  | inactive | inconclusive: 26.4 µM [cytotoxic, single point] |  | active: 10.5 µM |  |
